These are yes or no findings as the source states them, for the method shown. Some results given as binding are weak or reduced against the parent protein; the word gives no strength.
Target: human Pannexin1 wild type with C-terminal eGFP and 8x His-tag (FSEC sample) (human) (UniProt Q96RD7)
Test: SEC

Sequences of proteins named here, by UniProt entry; tags and fusion partners are left off.
UniProt Q96RD7, whole entry: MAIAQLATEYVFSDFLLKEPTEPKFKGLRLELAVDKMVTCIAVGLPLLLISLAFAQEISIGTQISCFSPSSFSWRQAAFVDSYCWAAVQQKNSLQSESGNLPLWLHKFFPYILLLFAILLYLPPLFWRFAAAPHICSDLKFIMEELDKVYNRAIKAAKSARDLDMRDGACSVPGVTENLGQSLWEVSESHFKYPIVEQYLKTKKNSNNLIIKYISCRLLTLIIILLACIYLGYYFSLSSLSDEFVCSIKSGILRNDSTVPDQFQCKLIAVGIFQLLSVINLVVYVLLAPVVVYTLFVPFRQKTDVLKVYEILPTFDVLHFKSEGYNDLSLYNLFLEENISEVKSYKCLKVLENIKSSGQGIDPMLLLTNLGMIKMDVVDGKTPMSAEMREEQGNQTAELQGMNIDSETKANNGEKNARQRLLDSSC

binding: binds
Substance: human Pannexin1 wild type with C-terminal eGFP and 8x His-tag (FSEC sample) (from UniProt Q96RD7)

From paper doi:10.1101/2022.09.09.507385 (bioRxiv, 2022)
